Source: paper doi:10.1101/2022.02.03.478926
These are yes or no findings as the source states them, for the method shown. In cells and extracts the contact can be indirect. Some entries that bind do so weakly or less than the wild type.

Sequences of proteins named here, by UniProt entry; tags and fusion partners are left off. Residues count along the entry.
UniProt P12023, residues 18-770: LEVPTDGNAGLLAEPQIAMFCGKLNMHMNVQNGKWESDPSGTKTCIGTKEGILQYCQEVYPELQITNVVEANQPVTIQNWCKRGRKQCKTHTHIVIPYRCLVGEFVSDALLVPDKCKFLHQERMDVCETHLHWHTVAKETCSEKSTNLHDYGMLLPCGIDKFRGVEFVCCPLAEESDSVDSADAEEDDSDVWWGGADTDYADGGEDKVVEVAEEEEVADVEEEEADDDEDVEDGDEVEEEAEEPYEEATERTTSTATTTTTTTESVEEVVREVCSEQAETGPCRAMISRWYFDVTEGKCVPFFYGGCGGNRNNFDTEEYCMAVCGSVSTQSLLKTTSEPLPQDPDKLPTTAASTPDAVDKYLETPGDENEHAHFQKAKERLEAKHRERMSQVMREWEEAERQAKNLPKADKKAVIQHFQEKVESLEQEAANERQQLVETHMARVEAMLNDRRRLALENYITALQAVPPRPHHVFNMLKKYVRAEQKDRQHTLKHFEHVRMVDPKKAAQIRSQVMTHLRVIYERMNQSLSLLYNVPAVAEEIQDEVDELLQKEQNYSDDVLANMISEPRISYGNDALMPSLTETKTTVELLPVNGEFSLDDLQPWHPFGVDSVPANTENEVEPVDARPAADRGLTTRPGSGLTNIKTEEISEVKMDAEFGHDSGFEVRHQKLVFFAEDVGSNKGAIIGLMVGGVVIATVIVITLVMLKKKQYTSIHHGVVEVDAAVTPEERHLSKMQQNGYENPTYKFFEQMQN
UniProt P39087, residues 32-908: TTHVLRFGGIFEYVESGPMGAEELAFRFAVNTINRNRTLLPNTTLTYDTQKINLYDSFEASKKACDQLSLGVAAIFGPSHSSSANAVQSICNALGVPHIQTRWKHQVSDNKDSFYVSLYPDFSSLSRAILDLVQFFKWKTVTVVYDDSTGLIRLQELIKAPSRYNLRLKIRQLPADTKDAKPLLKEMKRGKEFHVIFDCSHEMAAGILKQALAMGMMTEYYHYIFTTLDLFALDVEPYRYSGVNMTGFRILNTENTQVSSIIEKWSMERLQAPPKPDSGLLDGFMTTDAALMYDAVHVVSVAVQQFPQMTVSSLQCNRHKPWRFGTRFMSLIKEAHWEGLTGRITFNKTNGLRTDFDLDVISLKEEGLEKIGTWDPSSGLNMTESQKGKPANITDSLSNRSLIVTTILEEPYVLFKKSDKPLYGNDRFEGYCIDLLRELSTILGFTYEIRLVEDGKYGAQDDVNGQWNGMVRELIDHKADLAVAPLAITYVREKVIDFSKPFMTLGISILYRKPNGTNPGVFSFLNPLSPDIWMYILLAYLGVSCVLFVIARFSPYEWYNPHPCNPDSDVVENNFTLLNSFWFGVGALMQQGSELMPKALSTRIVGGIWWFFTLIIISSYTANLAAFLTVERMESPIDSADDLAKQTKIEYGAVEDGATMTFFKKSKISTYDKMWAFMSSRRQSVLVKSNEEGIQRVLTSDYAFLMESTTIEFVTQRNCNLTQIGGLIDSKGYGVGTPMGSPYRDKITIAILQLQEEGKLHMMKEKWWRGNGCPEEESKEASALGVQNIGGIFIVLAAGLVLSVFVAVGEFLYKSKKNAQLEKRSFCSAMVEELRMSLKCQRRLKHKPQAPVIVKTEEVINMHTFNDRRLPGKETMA

Legend:
Assay in all cases: co-IP
[1] = target: T1, GluK5 kainate receptor subunit (UniProt Q61626)
T1 sequence: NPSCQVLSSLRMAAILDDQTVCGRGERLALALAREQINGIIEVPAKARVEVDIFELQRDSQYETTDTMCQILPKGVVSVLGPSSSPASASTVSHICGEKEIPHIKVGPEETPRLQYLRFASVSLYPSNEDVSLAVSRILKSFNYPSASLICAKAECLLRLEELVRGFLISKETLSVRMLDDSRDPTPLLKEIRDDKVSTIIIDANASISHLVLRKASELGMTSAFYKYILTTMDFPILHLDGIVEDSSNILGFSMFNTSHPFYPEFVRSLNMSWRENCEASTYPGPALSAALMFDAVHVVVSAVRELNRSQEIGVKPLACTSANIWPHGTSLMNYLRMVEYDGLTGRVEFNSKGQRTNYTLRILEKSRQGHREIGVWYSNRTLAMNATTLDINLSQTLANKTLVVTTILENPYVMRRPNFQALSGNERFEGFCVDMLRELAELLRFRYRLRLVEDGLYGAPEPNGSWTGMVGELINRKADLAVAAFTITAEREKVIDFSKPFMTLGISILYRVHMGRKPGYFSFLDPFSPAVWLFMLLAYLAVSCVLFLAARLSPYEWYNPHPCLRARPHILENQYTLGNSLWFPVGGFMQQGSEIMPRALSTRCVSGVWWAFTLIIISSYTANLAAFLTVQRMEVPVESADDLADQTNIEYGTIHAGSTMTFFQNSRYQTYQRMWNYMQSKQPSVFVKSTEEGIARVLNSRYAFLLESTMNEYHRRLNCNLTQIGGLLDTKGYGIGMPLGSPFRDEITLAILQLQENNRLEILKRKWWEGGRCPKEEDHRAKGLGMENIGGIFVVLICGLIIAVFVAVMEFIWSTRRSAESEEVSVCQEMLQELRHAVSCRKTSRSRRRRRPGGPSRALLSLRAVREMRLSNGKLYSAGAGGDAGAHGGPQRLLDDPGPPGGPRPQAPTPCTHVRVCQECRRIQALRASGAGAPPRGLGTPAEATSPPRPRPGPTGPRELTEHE

[2] = target: full-length amyloid precursor protein (APP) (UniProt P12023)
[3] = target: GluK2 kainate receptor subunit (UniProt P39087)

In the case of “GluK2 kainate receptor subunit (from UniProt P39087 32-908)”, the binding [1] is reported as “binds” and the binding [2] is reported as “binds”.

In the case of “full-length amyloid precursor protein (APP) (from UniProt P12023 18-770)”, the binding [3] is reported as “binds” and the binding [1] is reported as “binds”.
